Results are given in words; binding and its absence hold for the method and conditions named. Binding seen in cells or lysates may run through a third protein. Here binding means that the protein was enriched with, or labelled near, the bait; the list need not be complete. For some of these results: Where a sequence is shown, tags or fusion partners need not be part of it.
T1: S/FLAG/SBP tagged AIMP1 (UniProt Q12904)
T1 sequence: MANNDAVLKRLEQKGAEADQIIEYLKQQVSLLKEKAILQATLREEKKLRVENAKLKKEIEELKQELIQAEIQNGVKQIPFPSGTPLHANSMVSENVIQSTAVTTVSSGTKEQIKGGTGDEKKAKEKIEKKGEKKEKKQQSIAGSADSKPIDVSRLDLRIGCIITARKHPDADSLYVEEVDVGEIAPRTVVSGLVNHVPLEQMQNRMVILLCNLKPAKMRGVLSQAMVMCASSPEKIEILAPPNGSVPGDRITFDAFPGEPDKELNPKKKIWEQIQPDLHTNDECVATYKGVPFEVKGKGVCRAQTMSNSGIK

By UniProt entry, the sequences of proteins in these tests, tags left out.
UniProt Q15046: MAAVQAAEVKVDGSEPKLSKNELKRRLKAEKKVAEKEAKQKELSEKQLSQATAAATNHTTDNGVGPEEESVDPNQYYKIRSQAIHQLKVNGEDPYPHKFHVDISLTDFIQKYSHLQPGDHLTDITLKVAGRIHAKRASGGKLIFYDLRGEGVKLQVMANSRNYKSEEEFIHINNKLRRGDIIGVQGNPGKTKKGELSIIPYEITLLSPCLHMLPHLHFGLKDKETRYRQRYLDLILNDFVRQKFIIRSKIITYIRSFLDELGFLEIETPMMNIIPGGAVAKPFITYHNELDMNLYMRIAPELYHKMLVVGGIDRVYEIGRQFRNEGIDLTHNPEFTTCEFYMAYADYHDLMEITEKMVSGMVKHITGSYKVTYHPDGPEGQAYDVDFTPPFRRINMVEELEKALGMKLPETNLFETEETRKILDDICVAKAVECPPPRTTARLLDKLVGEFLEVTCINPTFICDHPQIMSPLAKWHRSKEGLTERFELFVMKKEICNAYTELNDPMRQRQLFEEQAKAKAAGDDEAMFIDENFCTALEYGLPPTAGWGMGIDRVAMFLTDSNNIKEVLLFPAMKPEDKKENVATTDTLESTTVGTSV

T2: S/FLAG/SBP tagged AIMP2 (UniProt Q13155)
T2 sequence: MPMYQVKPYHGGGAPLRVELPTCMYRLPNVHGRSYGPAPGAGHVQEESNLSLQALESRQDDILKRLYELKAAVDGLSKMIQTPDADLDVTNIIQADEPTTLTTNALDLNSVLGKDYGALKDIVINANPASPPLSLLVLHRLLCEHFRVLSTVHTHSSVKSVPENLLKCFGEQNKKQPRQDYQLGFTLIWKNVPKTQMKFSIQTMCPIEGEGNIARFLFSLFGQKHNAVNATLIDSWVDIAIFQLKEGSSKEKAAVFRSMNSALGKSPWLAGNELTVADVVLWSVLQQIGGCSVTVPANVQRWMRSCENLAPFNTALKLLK

B1: Eukaryotic translation elongation factor 1 epsilon-1 (protein, UniProt O43324 1-174)
chain: MAAAAELSLLEKSLGLSKGNKYSAQGERQIPVLQTNNGPSLTGLTTIAAHLVKQANKEYLLGSTAEEKAIVQQWLEYRVTQVDGHSSKNDIHTLLKDLNSYLEDKVYLTGYNFTLADILLYYGLHRFIVDLTVQEKEKYLNVSRWFCHIQHYPGIRQHLSSVVFIKNRLYTNSH
B2: Isoform 1 of Probable threonyl-tRNA synthetase 2 (enzyme, UniProt A2RTX5 1-802)
chain: MAAEALAAEAVASRLERQEEDIRWLWSEVERLRDEQLNAPYSCQAEGPCLTREVAQLRAENCDLRHRLCSLRLCLAEERSRQATLESAELEAAQEAGAQPPPSQSQDKDMKKKKMKESEADSEVKHQPIFIKERLKLFEILKKDHQLLLAIYGKKGDTSNIITVRVADGQTVQGEVWKTTPYQVAAEISQELAESTVIAKVNGELWDLDRPLEGDSSLELLTFDNEEAQAVYWHSSAHILGEAMELYYGGHLCYGPPIENGFYYDMFIEDRAVSSTELSALENICKAIIKEKQPFERLEVSKEILLEMFKYNKFKCRILNEKVNTATTTVYRCGPLIDLCKGPHVRHTGKIKTIKIFKNSSTYWEGNPEMETLQRIYGISFPDNKMMRDWEKFQEEAKNRDHRKIGKEQELFFFHDLSPGSCFFLPRGAFIYNTLTDFIREEYHKRDFTEVLSPNMYNSKLWEASGHWQHYSENMFTFEIEKDTFALKPMNCPGHCLMFAHRPRSWREMPIRFADFGVLHRNELSGTLSGLTRVRRFQQDDAHIFCTVEQIEEEIKGCLQFLQSVYSTFGFSFQLNLSTRPENFLGEIEMWNEAEKQLQNSLMDFGEPWKMNPGDGAFYGPKIDIKIKDAIGRYHQCATIQLDFQLPIRFNLTYVSKDGDDKKRPVIIHRAILGSVERMIAILSENYGGKWPFWLSPRQVMVIPVGPTCEKYALQVSSEFFEEGFMADVDLDHSCTLNKKIRNAQLAQYNFILVVGEKEKIDNAVNVRTRDNKIHGEILVTSAIDKLKNLRKTRTLNAEEAF
B3: Methionyl-tRNA synthetase (enzyme, UniProt P56192 1-900)
chain: MRLFVSDGVPGCLPVLAAAGRARGRAEVLISTVGPEDCVVPFLTRPKVPVLQLDSGNYLFSTSAICRYFFLLSGWEQDDLTNQWLEWEATELQPALSAALYYLVVQGKKGEDVLGSVRRALTHIDHSLSRQNCPFLAGETESLADIVLWGALYPLLQDPAYLPEELSALHSWFQTLSTQEPCQRAAETVLKQQGVLALRPYLQKQPQPSPAEGRAVTNEPEEEELATLSEEEIAMAVTAWEKGLESLPPLRPQQNPVLPVAGERNVLITSALPYVNNVPHLGNIIGCVLSADVFARYSRLRQWNTLYLCGTDEYGTATETKALEEGLTPQEICDKYHIIHADIYRWFNISFDIFGRTTTPQQTKITQDIFQQLLKRGFVLQDTVEQLRCEHCARFLADRFVEGVCPFCGYEEARGDQCDKCGKLINAVELKKPQCKVCRSCPVVQSSQHLFLDLPKLEKRLEEWLGRTLPGSDWTPNAQFITRSWLRDGLKPRCITRDLKWGTPVPLEGFEDKVFYVWFDATIGYLSITANYTDQWERWWKNPEQVDLYQFMAKDNVPFHSLVFPCSALGAEDNYTLVSHLIATEYLNYEDGKFSKSRGVGVFGDMAQDTGIPADIWRFYLLYIRPEGQDSAFSWTDLLLKNNSELLNNLGNFINRAGMFVSKFFGGYVPEMVLTPDDQRLLAHVTLELQHYHQLLEKVRIRDALRSILTISRHGNQYIQVNEPWKRIKGSEADRQRAGTVTGLAVNIAALLSVMLQPYMPTVSATIQAQLQLPPPACSILLTNFLCTLPAGHQIGTVSPLFQKLENDQIESLRQRFGGGQAKTSPKPAVVETVTTAKPQQIQALMDEVTKQGNIVRELKAQKADKNEVAAEVAKLLDLKKQLAVAEGKPPEAPKGKKKK
B4: ER membrane lipid raft-associated 2 (protein, UniProt O94905 1-339)
chain: MAQLGAVVAVASSFFCASLFSAVHKIEEGHIGVYYRGGALLTSTSGPGFHLMLPFITSYKSVQTTLQTDEVKNVPCGTSGGVMIYFDRIEVVNFLVPNAVYDIVKNYTADYDKALIFNKIHHELNQFCSVHTLQEVYIELFDQIDENLKLALQQDLTSMAPGLVIQAVRVTKPNIPEAIRRNYELMESEKTKLLIAAQKQKVVEKEAETERKKALIEAEKVAQVAEITYGQKVMEKETEKKISEIEDAAFLAREKAKADAECYTAMKIAEANKLKLTPEYLQLMKYKAIASNSKIYFGKDIPNMFMDSAGSVSKQFEGLADKLSFGLEDEPLETATKEN
B5: TNF receptor-associated factor 4 (protein, UniProt Q9BUZ4 1-470)
chain: MPGFDYKFLEKPKRRLLCPLCGKPMREPVQVSTCGHRFCDTCLQEFLSEGVFKCPEDQLPLDYAKIYPDPELEVQVLGLPIRCIHSEEGCRWSGPLRHLQGHLNTCSFNVIPCPNRCPMKLSRRDLPAHLQHDCPKRRLKCEFCGCDFSGEAYESHEGMCPQESVYCENKCGARMMRRLLAQHATSECPKRTQPCTYCTKEFVFDTIQSHQYQCPRLPVACPNQCGVGTVAREDLPGHLKDSCNTALVLCPFKDSGCKHRCPKLAMARHVEESVKPHLAMMCALVSRQRQELQELRRELEELSVGSDGVLIWKIGSYGRRLQEAKAKPNLECFSPAFYTHKYGYKLQVSAFLNGNGSGEGTHLSLYIRVLPGAFDNLLEWPFARRVTFSLLDQSDPGLAKPQHVTETFHPDPNWKNFQKPGTWRGSLDESSLGFGYPKFISHQDIRKRNYVRDDAVFIRAAVELPRKILS
B6: AIMP1 isoform 2 (protein, UniProt Q12904-2 1-336)
chain: MLPAVAVSEPVVLRFMIFCRLLAKMANNDAVLKRLEQKGAEADQIIEYLKQQVSLLKEKAILQATLREEKKLRVENAKLKKEIEELKQELIQAEIQNGVKQIPFPSGTPLHANSMVSENVIQSTAVTTVSSGTKEQIKGGTGDEKKAKEKIEKKGEKKEKKQQSIAGSADSKPIDVSRLDLRIGCIITARKHPDADSLYVEEVDVGEIAPRTVVSGLVNHVPLEQMQNRMVILLCNLKPAKMRGVLSQAMVMCASSPEKIEILAPPNGSVPGDRITFDAFPGEPDKELNPKKKIWEQIQPDLHTNDECVATYKGVPFEVKGKGVCRAQTMSNSGIK

Each binder was assayed against T1, S/FLAG/SBP tagged AIMP1 (assay: affinity purification with mass spectrometry; S/FLAG/SBP-tagged bait transiently expressed in HEK 293T and HCT-8 cells; 2 mg lysate protein in NETN buffer (20 mM Tris-HCl pH 7.4, 1 mM EDTA, 150 mM NaCl, 0.5% Nonidet P-40) on streptavidin agarose, 2 h, 4 °C; eluted with biotin; in-gel digestion, LC-MS/MS; SAINT probability 0.9 or above against a mock vector with the tag only; three biological replicates).

binding	Binder
binds	B1
binds	B2
binds	B3

The binders below were run against T2, S/FLAG/SBP tagged AIMP2 in the same assay as above.

binding	Binder
binds	B1
binds	B2
binds	B4

These binders were tested against S/FLAG/SBP tagged KARS (UniProt Q15046) in the same assay as above.

binding	Binder
binds	B1
binds	B5
binds	B6
binds	B3

Reference: paper PMC3846882
